Measurements reported in PubChem BioAssay AID1259424 (University of Nebraska Medical Center, 2018)
Screen: 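Rank knockdowns across the genome by resemblance to the KSR1 depletion profile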 (primary screen). System: human HCT116 colon cancer cells. Reagents: siRNA pool against human genes, 50 nM. Read-out: 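Log2 levels of six mRNAs (branched-DNA multiplex), adjusted by two reference genes and the non-targeting median, then scored against the average KSR1 knockdown pattern as Pearson r and euclidean distance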. Direction: mean correlation with KSR1 profile: higher = expression change more like KSR1 knockdown; mean distance from KSR1 profile: higher = expression change less like KSR1 knockdown.
The whole screen tested about 14,000 reagents; this is a random part of them. 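Higher correlation or smaller distance means closer resemblance to KSR1 loss; control wells, including KSR1 knockdowns, recur on many plates.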 Further read-outs or replicates are left out here. Reagent sequences are not shown. Not given: the time to read-out.

| gene | mean correlation with KSR1 profile | mean distance from KSR1 profile |
| --- | --- | --- |
| USP6NL (GeneID 9712) | -0.33 | 2.28 |
| CDS2 (GeneID 8760) | 0.0874 | 3 |
| TMPRSS11D (GeneID 9407) | 0.047 | 2.92 |
| HMGCS1 (GeneID 3157) | 0.0646 | 3.16 |
| ZNF235 (GeneID 9310) | -0.102 | 2.32 |
| H3C10 (GeneID 8357) | -0.23 | 2.57 |
| CD24 (GeneID 100133941) | -0.693 | 2.87 |
| SMU1 (GeneID 55234) | -0.463 | 3.27 |
| COPG2 (GeneID 26958) | 0.161 | 1.99 |
| FLI1 (GeneID 2313) | -0.0957 | 2.27 |
| BTBD10 (GeneID 84280) | 0.352 | 2.45 |
| SDC1 (GeneID 6382) | 0.173 | 2.27 |
| CAND1 (GeneID 55832) | -0.411 | 1.46 |
| AZI2 (GeneID 64343) | 0.0511 | 1.2 |
| FCGR2C (GeneID 9103) | 0.367 | 4.62 |
| CLTCL1 (GeneID 8218) | -0.233 | 2.95 |
| AVL9 (GeneID 23080) | -0.148 | 2.24 |
| TGIF2 (GeneID 60436) | 0.117 | 2.22 |
| GPR180 (GeneID 160897) | -0.48 | 1.98 |
| TEAD4 (GeneID 7004) | -0.303 | 1.81 |
| IL17RB (GeneID 55540) | 0.744 | 1.07 |
| ZBTB43 (GeneID 23099) | -0.567 | 2.81 |
| PCDHB5 (GeneID 26167) | 0.66 | 1.08 |
| DDX59 (GeneID 83479) | 0.456 | 2.07 |
| BAIAP2 (GeneID 10458) | -0.449 | 1.66 |
| COL4A2 (GeneID 1284) | -0.487 | 2.83 |
| RFX2 (GeneID 5990) | 0.496 | 1.74 |
| DPP10 (GeneID 57628) | -0.446 | 1.54 |
| OCEL1 (GeneID 79629) | 0.217 | 2.23 |
| SCAF1 (GeneID 58506) | -0.535 | 4.87 |
| TOP2A (GeneID 7153) | -0.532 | 3.06 |
| MMP23A (GeneID 8511) | 0.376 | 1.91 |

The list goes on, starting with the last 7 of the part before.
| gene | mean correlation with KSR1 profile | mean distance from KSR1 profile |
| --- | --- | --- |
| COL4A2 (GeneID 1284) | -0.487 | 2.83 |
| RFX2 (GeneID 5990) | 0.496 | 1.74 |
| DPP10 (GeneID 57628) | -0.446 | 1.54 |
| OCEL1 (GeneID 79629) | 0.217 | 2.23 |
| SCAF1 (GeneID 58506) | -0.535 | 4.87 |
| TOP2A (GeneID 7153) | -0.532 | 3.06 |
| MMP23A (GeneID 8511) | 0.376 | 1.91 |
| LRRC4C (GeneID 57689) | -0.153 | 2.3 |
| BAIAP2L2 (GeneID 80115) | -0.381 | 2.95 |
| OLR1 (GeneID 4973) | 0.202 | 1.04 |
| NQO1 (GeneID 1728) | 0.159 | 3.25 |
| OR13A1 (GeneID 79290) | 0.776 | 0.916 |
| TPST1 (GeneID 8460) | 0.341 | 1.76 |
| SLC18A1 (GeneID 6570) | 0.0605 | 1.88 |
| FAM216A (GeneID 29902) | 0.402 | 1.69 |
| RPS27 (GeneID 6232) | 0.119 | 2.28 |
| ASCC2 (GeneID 84164) | 0.354 | 2.69 |
| MSN (GeneID 4478) | -0.596 | 2.05 |
| ITFG2 (GeneID 55846) | -0.103 | 1.96 |
| OTOF (GeneID 9381) | -0.46 | 2.64 |
| TALDO1 (GeneID 6888) | 0.264 | 2.09 |
| GADD45GIP1 (GeneID 90480) | -0.379 | 2.03 |
| MKKS (GeneID 8195) | 0.164 | 2.53 |
| WDR45B (GeneID 56270) | -0.702 | 1.56 |
| RPF1 (GeneID 80135) | 0.0733 | 2.06 |
| NAA25 (GeneID 80018) | 0.174 | 2.18 |
| NIN (GeneID 51199) | -0.272 | 2.71 |
| PTPRC (GeneID 5788) | -0.0961 | 1.47 |
| PTP4A1 (GeneID 7803) | 0.772 | 1.22 |
| MTRR (GeneID 4552) | -0.173 | 2 |
| PRSS33 (GeneID 260429) | 0.544 | 1.46 |
| MAP3K20 (GeneID 51776) | -0.205 | 1.61 |
| ZNF777 (GeneID 27153) | -0.0235 | 2.64 |
| RAB17 (GeneID 64284) | -0.509 | 2.69 |
| CHMP4A (GeneID 29082) | -0.0477 | 1.11 |
| C11orf16 (GeneID 56673) | -0.443 | 1.97 |
| DAXX (GeneID 1616) | 0.48 | 1.52 |
| UNC119 (GeneID 9094) | 0.307 | 2.47 |
